From patent US7452691B2, “Device and method for detecting antibiotic inactivating enzymes” (priority 2005, dated 2008)
For at least one compound, name, drawing or mass did not settle the structure.

By UniProt entry, the sequences of proteins in these tests, tags left out. Where a name states a change or a piece, a line headed by the entry shows the natural chain unless it says otherwise. Residues count along the entry.
UniProt Q00982, 20-267: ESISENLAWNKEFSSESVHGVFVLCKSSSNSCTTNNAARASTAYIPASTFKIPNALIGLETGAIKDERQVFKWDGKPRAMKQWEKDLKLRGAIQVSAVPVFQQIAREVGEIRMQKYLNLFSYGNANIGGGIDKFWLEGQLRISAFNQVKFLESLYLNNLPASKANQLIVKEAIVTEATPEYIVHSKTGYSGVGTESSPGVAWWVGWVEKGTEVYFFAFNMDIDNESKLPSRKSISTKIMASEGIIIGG
UniProt P0A1V9, 22-275: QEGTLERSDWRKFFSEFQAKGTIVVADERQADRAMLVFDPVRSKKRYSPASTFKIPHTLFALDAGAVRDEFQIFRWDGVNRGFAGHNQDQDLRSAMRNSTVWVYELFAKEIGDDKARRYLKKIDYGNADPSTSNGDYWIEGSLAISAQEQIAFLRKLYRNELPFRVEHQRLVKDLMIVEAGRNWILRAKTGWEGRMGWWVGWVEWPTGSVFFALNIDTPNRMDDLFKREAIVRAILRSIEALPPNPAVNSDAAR
UniProt Q03170, 18-288: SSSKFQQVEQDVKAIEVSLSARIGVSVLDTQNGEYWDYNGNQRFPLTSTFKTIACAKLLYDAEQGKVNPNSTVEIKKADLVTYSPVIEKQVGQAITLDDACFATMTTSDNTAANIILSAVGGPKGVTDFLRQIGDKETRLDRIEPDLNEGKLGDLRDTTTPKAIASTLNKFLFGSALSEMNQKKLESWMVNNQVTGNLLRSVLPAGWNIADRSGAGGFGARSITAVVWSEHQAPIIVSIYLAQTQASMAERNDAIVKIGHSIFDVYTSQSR
UniProt P52700, 34-290: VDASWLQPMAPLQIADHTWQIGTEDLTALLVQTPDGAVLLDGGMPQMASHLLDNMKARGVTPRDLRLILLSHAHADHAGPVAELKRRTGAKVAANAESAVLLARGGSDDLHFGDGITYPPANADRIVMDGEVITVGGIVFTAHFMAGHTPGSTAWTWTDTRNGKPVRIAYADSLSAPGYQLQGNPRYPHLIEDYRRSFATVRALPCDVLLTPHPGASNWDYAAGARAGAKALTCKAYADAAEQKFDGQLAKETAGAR
UniProt Q51429, 22-275: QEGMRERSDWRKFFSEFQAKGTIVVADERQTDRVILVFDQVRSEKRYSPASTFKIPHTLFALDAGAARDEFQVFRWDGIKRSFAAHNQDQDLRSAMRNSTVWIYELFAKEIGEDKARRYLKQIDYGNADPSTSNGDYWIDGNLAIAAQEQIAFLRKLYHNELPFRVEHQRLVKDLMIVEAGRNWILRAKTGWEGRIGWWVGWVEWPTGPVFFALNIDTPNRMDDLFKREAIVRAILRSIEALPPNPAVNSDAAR
UniProt P0AD64, 22-286: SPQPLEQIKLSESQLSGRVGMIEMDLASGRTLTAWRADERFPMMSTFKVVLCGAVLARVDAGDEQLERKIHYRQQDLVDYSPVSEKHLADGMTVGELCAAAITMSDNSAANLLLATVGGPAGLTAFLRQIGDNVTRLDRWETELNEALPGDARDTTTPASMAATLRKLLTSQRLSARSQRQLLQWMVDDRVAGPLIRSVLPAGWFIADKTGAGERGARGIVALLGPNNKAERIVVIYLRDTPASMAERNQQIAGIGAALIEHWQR
UniProt P37323: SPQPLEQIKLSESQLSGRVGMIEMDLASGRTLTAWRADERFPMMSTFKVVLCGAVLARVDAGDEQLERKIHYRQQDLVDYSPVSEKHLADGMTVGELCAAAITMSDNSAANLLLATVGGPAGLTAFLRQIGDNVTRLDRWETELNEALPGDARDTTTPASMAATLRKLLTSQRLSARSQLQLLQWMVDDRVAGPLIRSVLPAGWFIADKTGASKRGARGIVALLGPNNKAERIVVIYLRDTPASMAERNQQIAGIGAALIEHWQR
UniProt P0A9Z7, 22-286: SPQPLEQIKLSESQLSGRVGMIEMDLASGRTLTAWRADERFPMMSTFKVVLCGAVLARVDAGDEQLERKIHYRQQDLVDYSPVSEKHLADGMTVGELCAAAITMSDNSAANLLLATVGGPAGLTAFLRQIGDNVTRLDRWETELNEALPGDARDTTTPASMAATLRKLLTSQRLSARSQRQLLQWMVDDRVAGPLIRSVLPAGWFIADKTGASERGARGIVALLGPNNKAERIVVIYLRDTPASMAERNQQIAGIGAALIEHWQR

What was measured:
Assay in all cases: Indirect reagent disk test, antibiotic inactivation
Format in all cases: cell-based
OXA-5 = OXA-5 (Pseudomonas aeruginosa, UniProt Q00982); settings: enzyme OXA-5; indirect method
OXA-2 = OXA-2 (Escherichia coli, UniProt P0A1V9); settings: enzyme OXA-2; indirect method
PSE-1 = PSE-1 (Pseudomonas aeruginosa, UniProt Q03170); settings: enzyme PSE-1; indirect method
Text: (§1) • 1. […] Performing and Interpreting the Test • 1.

L-1 = L-1 (Stenotrophomonas maltophilia, UniProt P52700); settings: enzyme L-1; indirect method; further: key: P, positive; N, negative; WP, weak positive (slight flattening); ?, results were questionable
Text: as §1

OXA-3 = OXA-3 (Pseudomonas aeruginosa, UniProt Q51429); settings: enzyme OXA-3; indirect method
SHV-1 = SHV-1 (Klebsiella pneumoniae, UniProt P0AD64); settings: enzyme SHV-1; indirect method
SHV-4 = SHV-4 (Klebsiella pneumoniae, UniProt P37323); settings: enzyme SHV-4; indirect method
SHV-2 = SHV-2 (Escherichia coli, UniProt P0A9Z7); settings: enzyme SHV-2; indirect method

Question: For `COCC1=C(C(=O)O)N2C(=O)[C@@H](NC(=O)/C(=N\OC)c3csc(N)n3)[C@H]2SC1` [CPD, cefpodoxime], which “Reagent disk test result (indentation of inhibition zone = antibiotic inactivation)” value (OXA-5) is on record?
Answer: Its value is “N?”.

Question: And the “Reagent disk test result (indentation of inhibition zone = antibiotic inactivation)” value (OXA-2)?
Answer: The value was “N”.

Question: What about the “Reagent disk test result (indentation of inhibition zone = antibiotic inactivation)” value (PSE-1) of the same molecule?
Answer: The value was “N”.

Question: What about the “Reagent disk test result (indentation of inhibition zone = antibiotic inactivation)” value (L-1) of the same molecule?
Answer: The value was “N”.

Question: What does the source list for `C[C@@H](O)[C@H]1C(=O)N2C(C(=O)O)=C(SCCN=CN)C[C@H]12` [IPM, imipenem]?
Answer: Reagent disk test result (indentation of inhibition zone = antibiotic inactivation) (OXA-5): N; Reagent disk test result (indentation of inhibition zone = antibiotic inactivation) (OXA-3): N; Reagent disk test result (indentation of inhibition zone = antibiotic inactivation) (SHV-1): N; Reagent disk test result (indentation of inhibition zone = antibiotic inactivation) (SHV-4): N; Reagent disk test result (indentation of inhibition zone = antibiotic inactivation) (SHV-2): N; Reagent disk test result (indentation of inhibition zone = antibiotic inactivation) (OXA-2): WP?; Reagent disk test result (indentation of inhibition zone = antibiotic inactivation) (PSE-1): WP^o; Reagent disk test result (indentation of inhibition zone = antibiotic inactivation) (L-1): N
